Data source: PubChem BioAssay AID1259405 (NCATS, 2018)

Test: 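Knock-downs that lift recombinant protein yield in hamster ovary cells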 (primary screen)
Cell system: Chinese hamster CHO-K1 ovary cells with stable secreted eGFP expression
Reagent: single siRNA against mouse genes, 0.8 pmol siRNA per well (2 µl of 400 nM stock)
Duration: 3 days
Measurement: 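Per-well intracellular GFP measured by laser scanning cytometry, plus viability from ATP luminescence, each relative to plate median of non-targeting control wells, in %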
Reading the numbers: GFP, % of control: higher = more GFP per well, higher productivity; viability (ATP), % of control: higher = more viable cells (more ATP)
Rule for the call: 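Called active when intracellular GFP, relative to negative control, is at or above 120%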
The whole screen tested about 50,000 reagents; shown is a random part of them. About 4,000 of them (8%) were called active. 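Mouse siRNA library applied to hamster cells; one well for each siRNA.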 Entries without a mark were called inactive. The numbers tell different reagents against one gene apart.

GFP, % of control | viability (ATP), % of control | target | siRNA no.
84.8 | 76.4 | Eri3 (GeneID 140546) | 1
78.7 | 91.5 | Eri3 (GeneID 140546) | 2
151 (active) | 121 | Eri3 (GeneID 140546) | 3
62.3 | 64.1 | Det1 (GeneID 76375) | 1
59.7 | 66.3 | Det1 (GeneID 76375) | 2
85.9 | 77.5 | Det1 (GeneID 76375) | 3
75.1 | 59.9 | Lin7b (GeneID 22342) | 1
90 | 89.5 | Lin7b (GeneID 22342) | 2
51.8 | 57.2 | H2bc18 (GeneID 319189) | 1
51.6 | 61.1 | H2bc18 (GeneID 319189) | 2
100 | 88.8 | H2bc18 (GeneID 319189) | 3
123 (active) | 74.3 | Wnt8b (GeneID 22423) | 1
57.3 | 52.1 | Wnt8b (GeneID 22423) | 2
70.2 | 54.2 | Wnt8b (GeneID 22423) | 3
85.4 | 58.7 | Bmp6 (GeneID 12161) | 1
99.9 | 75.8 | Bmp6 (GeneID 12161) | 2
93.3 | 59.8 | Slc5a9 (GeneID 230612) | 1
139 (active) | 57.7 | Slc5a9 (GeneID 230612) | 2
67.7 | 93.8 | Slc5a9 (GeneID 230612) | 3
102 | 77.4 | Gm14461 (GeneID 329436) | 1
40.4 | 47.9 | Gm14461 (GeneID 329436) | 2
85.9 | 79 | Gm14461 (GeneID 329436) | 3
86.1 | 61 | Vwa3a (GeneID 233813) | 1
85.5 | 57.9 | Vwa3a (GeneID 233813) | 2
67.9 | 47.8 | Vwa3a (GeneID 233813) | 3
81.5 | 62.2 | Kcnk18 (GeneID 332396) | 1
98.6 | 78.6 | Kcnk18 (GeneID 332396) | 2
94.8 | 67.4 | Kcnk18 (GeneID 332396) | 3
171 (active) | 89 | Cox14 (GeneID 66379) | 1
136 (active) | 119 | Cox14 (GeneID 66379) | 2
71.9 | 76.7 | Cox14 (GeneID 66379) | 3
103 | 79.1 | Gorasp2 (GeneID 70231) | 1
79.9 | 72 | Gorasp2 (GeneID 70231) | 2
92.3 | 46.9 | Gorasp2 (GeneID 70231) | 3
87.8 | 61.6 | Aqp6 (GeneID 11831) | 1
78.4 | 50 | Aqp6 (GeneID 11831) | 2
75.7 | 30.4 | Aqp6 (GeneID 11831) | 3
108 | 57.7 | Otp (GeneID 18420) | 1
74 | 79.9 | Otp (GeneID 18420) | 2
95.8 | 72.6 | Duoxa1 (GeneID 213696) | 1
94.6 | 105 | Duoxa1 (GeneID 213696) | 2
177 (active) | 138 | Duoxa1 (GeneID 213696) | 3

In a second layout: entries from further up.
Gm14461 (GeneID 329436) #2
- GFP, % of control: 40.4
- viability (ATP), % of control: 47.9

Gm14461 (GeneID 329436) #3
- GFP, % of control: 85.9
- viability (ATP), % of control: 79

Vwa3a (GeneID 233813) #1
- GFP, % of control: 86.1
- viability (ATP), % of control: 61

Vwa3a (GeneID 233813) #2
- GFP, % of control: 85.5
- viability (ATP), % of control: 57.9

Vwa3a (GeneID 233813) #3
- GFP, % of control: 67.9
- viability (ATP), % of control: 47.8

Kcnk18 (GeneID 332396) #1
- GFP, % of control: 81.5
- viability (ATP), % of control: 62.2

Kcnk18 (GeneID 332396) #2
- GFP, % of control: 98.6
- viability (ATP), % of control: 78.6

Kcnk18 (GeneID 332396) #3
- GFP, % of control: 94.8
- viability (ATP), % of control: 67.4

Cox14 (GeneID 66379) #1
- GFP, % of control: 171 (active)
- viability (ATP), % of control: 89

Cox14 (GeneID 66379) #2
- GFP, % of control: 136 (active)
- viability (ATP), % of control: 119

Cox14 (GeneID 66379) #3
- GFP, % of control: 71.9
- viability (ATP), % of control: 76.7

Gorasp2 (GeneID 70231) #1
- GFP, % of control: 103
- viability (ATP), % of control: 79.1

Gorasp2 (GeneID 70231) #2
- GFP, % of control: 79.9
- viability (ATP), % of control: 72

Gorasp2 (GeneID 70231) #3
- GFP, % of control: 92.3
- viability (ATP), % of control: 46.9

Aqp6 (GeneID 11831) #1
- GFP, % of control: 87.8
- viability (ATP), % of control: 61.6

Aqp6 (GeneID 11831) #2
- GFP, % of control: 78.4
- viability (ATP), % of control: 50

Further results follow:
GFP, % of control | viability (ATP), % of control | target | siRNA no.
83.9 | 69.9 | Apex1 (GeneID 11792) | 1
81 | 63.1 | Apex1 (GeneID 11792) | 2
117 | 102 | Apex1 (GeneID 11792) | 3
78.5 | 63.7 | Mpv17l (GeneID 93734) | 1
58.7 | 73.6 | Mpv17l (GeneID 93734) | 2
52.6 | 68.2 | Mpv17l (GeneID 93734) | 3
129 (active) | 105 | Eral1 (GeneID 57837) | 1
152 (active) | 104 | Eral1 (GeneID 57837) | 2
43.8 | 57.9 | Eral1 (GeneID 57837) | 3
77.4 | 95 | Vps35 (GeneID 65114) | 1
67.4 | 95 | Vps35 (GeneID 65114) | 2
87.7 | 63.7 | Sval3 (GeneID 387564) | 1
102 | 121 | Sval3 (GeneID 387564) | 2
149 (active) | 135 | Sval3 (GeneID 387564) | 3
61.9 | 67.4 | Zbtb24 (GeneID 268294) | 1
82.7 | 73.8 | Zbtb24 (GeneID 268294) | 2
97.3 | 116 | Zbtb24 (GeneID 268294) | 3
106 | 40.1 | Or52ae9 (GeneID 258818) | 1
70.2 | 72.3 | Or52ae9 (GeneID 258818) | 2
50.3 | 79.6 | Or52ae9 (GeneID 258818) | 3
91.9 | 75.2 | Ccnj (GeneID 240665) | 1
38.8 | 51.9 | Ccnj (GeneID 240665) | 2
101 | 79.1 | Ccnj (GeneID 240665) | 3
130 (active) | 103 | Scgn (GeneID 214189) | 1
96.7 | 81.8 | Scgn (GeneID 214189) | 2
138 (active) | 131 | Hbs1l (GeneID 56422) | 1
102 | 67.9 | Hbs1l (GeneID 56422) | 2
101 | 80.2 | Hbs1l (GeneID 56422) | 3
101 | 55.7 | Dntt (GeneID 21673) | 1
139 (active) | 100 | Dntt (GeneID 21673) | 2
106 | 46.8 | Dntt (GeneID 21673) | 3
64.4 | 92.9 | Gp1bb (GeneID 14724) | 1
69 | 80.2 | Gp1bb (GeneID 14724) | 2
103 | 81.8 | Pigz (GeneID 239827) | 1
57.6 | 52.5 | Pigz (GeneID 239827) | 2
118 | 101 | Pigz (GeneID 239827) | 3
111 | 76.3 | R3hdm1 (GeneID 226412) | 1
122 (active) | 82.6 | R3hdm1 (GeneID 226412) | 2
31.1 | 28.6 | R3hdm1 (GeneID 226412) | 3
123 (active) | 118 | Relb (GeneID 19698) | 1
62.3 | 47.4 | Relb (GeneID 19698) | 2
95.4 | 90 | Relb (GeneID 19698) | 3
239 (active) | 82 | Rogdi (GeneID 66049) | 1
74.8 | 82.7 | Rogdi (GeneID 66049) | 2
95 | 75.9 | Rogdi (GeneID 66049) | 3
113 | 89.9 | Rogdi (GeneID 66049) | 4
103 | 106 | Rogdi (GeneID 66049) | 5
70.2 | 103 | Rogdi (GeneID 66049) | 6
89.5 | 107 | Myot (GeneID 58916) | 1
64.1 | 66.3 | Myot (GeneID 58916) | 2
85.1 | 74.6 | Ajm1 (GeneID 381353) | 1
75.3 | 65.3 | Ajm1 (GeneID 381353) | 2
62.2 | 71 | Ajm1 (GeneID 381353) | 3
57.6 | 82.1 | Or2ag17 (GeneID 258180) | 1
91.9 | 64.8 | Or2ag17 (GeneID 258180) | 2
71.6 | 82.5 | Or2ag17 (GeneID 258180) | 3
74.7 | 64.4 | Or52ae7 (GeneID 258751) | 1
89.1 | 93.7 | Or52ae7 (GeneID 258751) | 2
74.1 | 65.3 | Or52ae7 (GeneID 258751) | 3
102 | 94.7 | Fndc4 (GeneID 64339) | 1
39.5 | 56.5 | Fndc4 (GeneID 64339) | 2
96.5 | 52.9 | Fndc4 (GeneID 64339) | 3
76.8 | 96.4 | Abcb11 (GeneID 27413) | 1
57.9 | 75.4 | Abcb11 (GeneID 27413) | 2
86.9 | 94.9 | Abcb11 (GeneID 27413) | 3
